{
  "source": "paper PMC8670446",
  "molecular_target": "His6-SUMO [SUMO: Q12306]",
  "experiment": "BLI; His6-SUMO immobilised on the sensor; JDPs or Ssa1 in solution; background control; both purified",
  "note": "These are yes or no findings as the source states them, for the method shown.",
  "data": [
    {"binder": "Sis1 (protein, UniProt P25294 1-352) MVKETKLYDLLGVSPSANEQELKKGYRKAALKYHPDKPTGDTEKFKEISEAFEILNDPQKREIYDQYGLEAARSGGPSFGPGGPGGAGGAGGFPGGAGGFSGGHAFSNEDAFNIFSQFFGGSSPFGGADDSGFSFSSYPSGGGAGMGGMPGGMGGMHGGMGGMPGGFRSASSSPTYPEEETVQVNLPVSLEDLFVGKKKSFKIGRKGPHGASEKTQIDIQLKPGWKAGTKITYKNQGDYNPQTGRRKTLQFVIQEKSHPNFKRDGDDLIYTLPLSFKESLLGFSKTIQTIDGRTLPLSRVQPVQPSQTSTYPGQGMPTPKNPSQRGNLIVKYKVDYPISLNDAQKRAIDENF", "values": [
      {"measurement": "binding", "value": "no binding"}
    ]}
  ]
}
